{"source": "PubChem BioAssay AID1259308 (NCATS, 2017)", "test": "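Knock-downs that increase output of a recombinant reporter protein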 (primary screen)", "cells": "human HEK293 embryonic kidney cells stably expressing firefly luciferase (HEK-CMV-Luc2-Hygro)", "knock-down reagent": "single siRNA against human genes, 0.8 pmol siRNA per well", "duration": "72 h", "measurement": "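Luciferase light (ONE-Glo) measured on one replicate plate set and viability (CellTiter-Glo) on the other, scaled to a negative control siRNA, with robust z-scores and luciferase per cell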", "reading the numbers": "total luciferase, z-score: higher = more reporter protein produced", "rule for the call": "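An siRNA counts as active if its total luciferase robust z-score exceeds 3; genes with two or more such siRNAs out of three were retested with fresh siRNAs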", "calls": "active = raised luciferase; inactive = no rise", "note": "The deposit covers about 59,000 reagents; below is a part drawn at random. In the full data, about 1,510 (2.6%) were called active. 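Calls use total luciferase alone and ignore viability, so some active siRNAs may act by altering cell number.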 Entries without a mark were called inactive. The numbers tell different reagents against one gene apart. Further read-outs or replicates are left out here. No sequences are given here."}
{"Target gene": "GLCE (glucuronic acid epimerase)", "reagent no.": 1, "total luciferase, z-score": 0.326}
{"Target gene": "GLCE (glucuronic acid epimerase)", "reagent no.": 2, "total luciferase, z-score": 2.57}
{"Target gene": "GLCE (glucuronic acid epimerase)", "reagent no.": 3, "total luciferase, z-score": 1.72}
{"Target gene": "THRAP3 (thyroid hormone receptor associated protein 3)", "reagent no.": 1, "total luciferase, z-score": 0.42}
{"Target gene": "THRAP3 (thyroid hormone receptor associated protein 3)", "reagent no.": 2, "total luciferase, z-score": 0.249}
{"Target gene": "THRAP3 (thyroid hormone receptor associated protein 3)", "reagent no.": 3, "total luciferase, z-score": -0.26}
{"Target gene": "ACTRT2 (actin related protein T2)", "reagent no.": 1, "total luciferase, z-score": 0.718}
{"Target gene": "ACTRT2 (actin related protein T2)", "reagent no.": 2, "total luciferase, z-score": 0.00717}
{"Target gene": "ACTRT2 (actin related protein T2)", "reagent no.": 3, "total luciferase, z-score": 1.32}
{"Target gene": "PCDHAC1 (protocadherin alpha subfamily C, 1)", "reagent no.": 1, "total luciferase, z-score": -0.783}
{"Target gene": "PCDHAC1 (protocadherin alpha subfamily C, 1)", "reagent no.": 2, "total luciferase, z-score": 0.452}
{"Target gene": "PCDHAC1 (protocadherin alpha subfamily C, 1)", "reagent no.": 3, "total luciferase, z-score": 1.28}

Reformatted: results already given
GLCE (glucuronic acid epimerase) #2
- total luciferase, z-score: 2.57

GLCE (glucuronic acid epimerase) #3
- total luciferase, z-score: 1.72
